# Library screening results

Mtb growth Cornell: 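Whole-cell assay for inhibitors of Mycobacterium tuberculosis growth, labelled Cornell in the record; the read-out is not stated. The concentration is filed as 10 mM, unlikely as a test dose, so the dose is not known. The record gives no direction; compounds strong in two other growth screens of this library score well above the rest, so higher reads as stronger inhibition. Size under these conditions: about 53,000 compounds, about 900 of them at 50% or above in at least one test.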
Mtb heat-shock: 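Assay on Mycobacterium tuberculosis, filed only as a heat shock assay from Cornell; the read-out is not stated. The concentration is filed as 10 mM, unlikely as a test dose, so the dose is not known. The record gives no direction; compounds that gave an IC50 in retests scored well above the rest, so higher reads as stronger inhibition. About 69,000 compounds were tested under these conditions; 1.4% (about 930) showed 50% or more at least once.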

Each number is a percent effect as filed.
The record does not define 0% and 100%; most values in the screen are far below 50% and negative numbers occur (in some assays of this library far below -100).
The compounds are a random part of those screened.
A dash means the value is not listed here; it may have been measured.

| SMILES | Mtb growth Cornell | Mtb heat-shock |
|---|---|---|
| `COc1cc(C2SCC(=O)Nc3[nH]ncc32)cc2c1OCO2` (stereo not given) | 44.39% | 24.48% |
| `O=C1Nc2ccccc2CN(C/C=C/c2ccccc2)C12CCNC2` (stereo not given) | - | 1.518% |
| `[H][C@]12OCCN(Cc3ccc(C)o3)[C@@]1([H])CC[C@@H]2OCc1cccnc1` | 11.3% | 14.81% |
| `COC(=O)c1ccc(F)c(Cn2nc(C)cc2C)c1` | -12.06% | -17.05% |
| `COc1cccc(-n2nnc(C(=O)N3CCCCCC3)c2C)c1` | - | 6.11% |
| `CC(C)C(=O)N1CCN(Cc2csc(-c3ncccn3)n2)CC1` | 6.512% | -28.21% |
| `COCCc1noc(C2CCN(S(=O)(=O)c3cccs3)CC2)n1` | -0.879% | -20.66% |
| `Cc1ccc2c(c1)CCC21CCN(C(=O)CN(C)C)CC1.O=C(O)C(F)(F)F` | 25.56% | -22.19% |
| `COc1ccc(-c2cnc(N(C)C)nc2C2CNCCO2)cc1.Cl` (stereo not given) | 26.81% | -9.716% |
| `O=C(c1cc(C2CC2)nc2onc(-c3ccccc3)c12)N1CCOCC1` | - | -21.99% |
| `c1ccc(-c2noc([C@@H]3Cc4nc[nH]c4CN3)n2)cc1` | - | -9.228% |
| `COc1c(CNC(c2ccccc2)c2ccc(F)cc2)c(C)nn1C` (stereo not given) | - | -7.995% |
| `Cc1ccc(CN2CCCC(c3nnc(CN4CCCCC4)n3C)C2)s1` (stereo not given) | 21.72% | -12.88% |
| `Cc1ccc(CN2CC[C@H](c3nnc(COc4ccc(F)cc4)o3)C2)o1` | - | 102.2% |
| `[H][C@]12CC[C@]([H])(CN(Cc3ccccc3)C1)N(C(=O)CSC)C2` | 9.59% | -6.523% |
| `Cc1ccc(NC(C(N)=O)c2ccc(F)cc2)cc1` (stereo not given) | -11.9% | 16.85% |
| `Cc1cc(N(C)C)cc(C2CCN(S(=O)(=O)c3cccnc3)C2)n1` (stereo not given) | 24.1% | -14.81% |
| `COc1ccc(CNC(=O)NCc2cc(C)oc2C)cc1` | -71.26% | 2.629% |
| `CCc1nn2c(=N)c(C#N)n[nH]c2c1-c1ccc(OC)cc1` | 40.91% | 3.36% |
| `CC(C)c1cc(NC(=O)Cn2cnc3ccccc3c2=O)[nH]n1` | 21.58% | -4.93% |
| `Cc1cc2nc(C(C)C)cc(NC(C)c3nncn3C3CCCC3)n2n1` (stereo not given) | - | 35.76% |
| `Cc1nn(C)c(C)c1C1CCCN1CC(=O)NCc1ccco1` (stereo not given) | - | -9.123% |
| `O=C(CS(=O)(=O)Cc1csc(-c2ccc(F)cc2)n1)NCC1CC1` | 4.145% | 0.362% |
| `c1cc(CN2CCN(Cc3ccon3)C3(CCCCC3)C2)no1` | 11.71% | -28.72% |
| `O=C(O)C(F)(F)F.[H][C@@]12CCN(C)C[C@@]1([H])[C@H](C(=O)NCc1ccco1)CCO2` | -50.19% | -28.93% |
| `CS(=O)(=O)NCC1CCCN(C(=O)c2cccc(F)c2)C1` (stereo not given) | - | -13.86% |
| `CCn1ccnc1CN1CCCN(C(=O)Cc2csc(C)n2)CC1` | - | 29.01% |
| `CC(C)(C)C(=O)NCCC(=O)NCCc1ccn(-c2ccccc2)n1` | - | -29.21% |
| `O=C(O)C(F)(F)F.[H][C@@]12CCN(c3ncccn3)C[C@@]1([H])O[C@@H](C(=O)NCc1ccco1)C2` | 33.78% | 11.19% |
| `CCN(Cc1ccoc1)C(=O)NC1CCN(CC=C(C)C)CC1` | 10.96% | -1.133% |
| `Cc1nccn1CC1CCCN(C(=O)c2cnn(C)c2)C1` (stereo not given) | -19% | 3.155% |
| `C[C@@H]1CN(C(=O)c2cnc(C3CC3)nc2)CC[C@@]1(O)C1CCOCC1` | - | 14.14% |
| `CCCc1cc(NCCCC2CCOC2)n2nccc2n1` (stereo not given) | - | -11.69% |
| `Cl.c1cnc(N2CCCC(NCc3ccc(-n4ccnc4)cc3)C2)nc1` (stereo not given) | -23.89% | 2.149% |
| `Cc1nc[nH]c1CN1CCCN(c2nc3ccccc3s2)CC1` | 3.174% | -12.05% |
| `CS(=O)(=O)NC1CCc2c(ccc(=O)n2CC2CC2)C1` (stereo not given) | - | 5.255% |
| `Cc1ncoc1C(=O)N1CCn2c(COCC3CC3)cnc2C1C` (stereo not given) | 9.474% | 4.647% |
| `CCc1cccc(N2CCC(NC(=O)CCNC(N)=O)CC2)c1` | -6.957% | 1.831% |
| `CC(=O)c1cc(CN2CCCCC2c2nc3cc(F)ccc3[nH]2)cs1` (stereo not given) | 4.839% | -34.1% |
| `Cc1noc(C)c1CNC(=O)N1CCCC(C)CC1` (stereo not given) | 12.27% | 1.548% |
| `COCC(=O)N1CCn2c(COc3cccnc3)cnc2C1C.O=C(O)C(F)(F)F` (stereo not given) | -18.88% | 5.093% |
| `COc1nc2ccn(CCc3cnccn3)c(=O)c2cc1C#N` | -31.17% | -27.94% |

Some entries from above, unchanged:

| SMILES | Mtb growth Cornell | Mtb heat-shock |
|---|---|---|
| `Cc1ccc(NC(C(N)=O)c2ccc(F)cc2)cc1` (stereo not given) | -11.9% | 16.85% |
| `C[C@@H]1CN(C(=O)c2cnc(C3CC3)nc2)CC[C@@]1(O)C1CCOCC1` | - | 14.14% |
| `O=C(O)C(F)(F)F.[H][C@@]12CCN(C)C[C@@]1([H])[C@H](C(=O)NCc1ccco1)CCO2` | -50.19% | -28.93% |
| `CC(C)C(=O)N1CCN(Cc2csc(-c3ncccn3)n2)CC1` | 6.512% | -28.21% |
| `CCCc1cc(NCCCC2CCOC2)n2nccc2n1` (stereo not given) | - | -11.69% |

The values are deposited in ChEMBL (CHEMBL3988442, “University of Dundee, Small-Polar-MMV Screening Library” (2021)).